Test results as given in patent publication US20060057569.

System: AciI restriction endonuclease
Experiment: enzyme reaction in vitro
Conditions: 3'-C22 spacer-NH2, immobilised on well, NEB buffer 3, 37 C, 1 h, 2 units, purified recombinant protein, protein details: New England Biolabs, label: 5'-FITC, folded or branched DNA

Sequence	activity on this sequence (fluorescence x1000 falls from about 350 to about 2.1 without target or with non-matching RNA B')	activity on this sequence (fluorescence x1000 falls from about 352 to about 2.1 without target or with non-matching RNA A')
GCCCGCGCAATAGGGATGGCTCAACAGCGCGGGC [hairpin probe A]	active	
GCCCGCGCTTAGAGTGCAAAATGAAAGCGCCGCGCGGGC [hairpin probe B]		active

For at least one entry, the source does not settle the construct or the ends of the probe.
